# Source: patent US8809529B2, “Imidazo[1,2-α]pyrazine derivatives” (Promega Corporation, priority 2010, dated 2014)
# What was measured:
# [1] = Auto-luminescence characterization of coelenterazines; format: physicochemical; details: 20 μM on HEK293 cells in CO2 independent media plus 10% FBS; normalized to native coelenterazine
# [2] = test system: CHO cells; assay: Intracellular half-life of OgLuc variants in CHO cells (cycloheximide); format: cell-based; details: for intracellular half-life: CMV d2 no deg.: CMV deletion variant (d2); for intracellular half-life: CMV Pest: PEST degradation signal; for intracellular half-life: CMV no deg.: cycloheximide, full strength CMV promoter
Molecule,Autolum (norm to coel) [1],other results
"O=c1c(Cc2ccccc2)nc2c(Cc3ccccc3)[nH]c(-c3ccccc3)cn1-2 [Coelenterazine hh, bis-deoxycoelenterazine, reference compound]",0.3,
"Oc1ccc(Cc2nc3c(Cc4ccccc4)nc(-c4ccc(O)cc4)cn3c2O)cc1 [Native coelenterazine, coelenterazine, reference compound]",1,
"O=c1c(Cc2ccc(O)cc2)nc2c(Cc3ccccc3)[nH]c(-c3ccccc3)cn1-2 [PBI-3840, 8-benzyl-2-(4-hydroxybenzyl)-6-phenylimidazo[1,2-a]pyrazin-3(7H)-one]",0.2,
CC(C)c1[nH]c(-c2ccccc2)cn2c(=O)c(Cc3ccc(O)cc3)nc1-2 [PBI-3841],0.1,
"O=c1c(Cc2cccs2)nc2c(Cc3ccccc3)[nH]c(-c3ccccc3)cn1-2 [PBI-3889, 8-benzyl-6-phenyl-2-(thiophen-2-ylmethyl)imidazo[1,2-a]pyrazin-3(7H)-one]",0.2,
O=c1c(Cc2ccc(O)cc2)nc2c[nH]c(-c3ccccc3)cn1-2 [PBI-3894],0.2,
"Cc1[nH]c(-c2ccccc2)cn2c(=O)c(Cc3ccc(O)cc3)nc1-2 [PBI-3896, 2-(4-hydroxybenzyl)-8-methyl-6-phenylimidazo[1,2-a]pyrazin-3(7H)-one]",0.1,
"O=c1c(Cc2ccc(O)cc2)nc2c(C3CC3)[nH]c(-c3ccccc3)cn1-2 [PBI-3897, 8-cyclopropyl-2-(4-hydroxybenzyl)-6-phenylimidazo[1,2-a]pyrazin-3(7H)-one]",0.1,
"CCc1nc2c(Cc3ccccc3)[nH]c(-c3ccccc3)cn-2c1=O [PBI-3925, 8-benzyl-2-ethyl-6-phenylimidazo[1,2-a]pyrazin-3(7H)-one]",0.2,
"Cc1nc2c(Cc3ccccc3)[nH]c(-c3ccccc3)cn-2c1=O [PBI-3932, 8-benzyl-2-methyl-6-phenylimidazo[1,2-a]pyrazin-3(7H)-one]",0.1,
"O=c1c(Cc2ccco2)nc2c(Cc3ccccc3)[nH]c(-c3ccccc3)cn1-2 [PBI-3939, 8-benzyl-2-(furan-2-ylmethyl)-6-phenylimidazo[1,2-a]pyrazin-3(7H)-one]",0.2,
O=c1c(Cc2ccco2)nc2c(Cc3ccccc3)[nH]c(-c3ccc(O)cc3)cn1-2 [PBI-3945],0.5,
O=c1c(Cc2cccs2)nc2c(Cc3ccccc3)[nH]c(-c3ccc(O)cc3)cn1-2 [PBI-4002],0.6,
"coelenterazine-h [Coelenterazine h, reference compound]",1.2,
"9B8: IV variant with Q18L, F68Y, L72Q, M75K; in Tables 12, 22, 23, 26, 27 “9B8” stands for 9B8 opt (protein) MVFTLEDFVGDWRQTAGYNLDQVLEQGGLSSLFQKLGVSVTPIQKIVLSGENGLKIDIHVIIPYEGLSGYQMGQIEKIFKVVYPVDDHHFKVILHYGTLVIDGVTPNMIDYFGRPYEGIAVFDGKKITVTGTLWNGNKIIDERLINPDGSLLFRVTINGVTGWRLCERILA",,intracellular half-life: CMV d2 no deg. [2]: 3.87 h; intracellular half-life: CMV Pest [2]: 1.43 h; intracellular half-life: CMV no deg. [2]: 6.32 h
"L27V: 9B8 opt+K33N variant with L27V, T39T, K43R, Y68D (protein) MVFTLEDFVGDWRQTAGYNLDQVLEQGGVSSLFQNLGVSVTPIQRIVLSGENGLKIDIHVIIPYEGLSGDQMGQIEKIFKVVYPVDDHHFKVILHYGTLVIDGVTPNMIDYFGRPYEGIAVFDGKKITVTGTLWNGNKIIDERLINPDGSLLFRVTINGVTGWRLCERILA",,intracellular half-life: CMV d2 no deg. [2]: 4.78 h; intracellular half-life: CMV Pest [2]: 1.63 h; intracellular half-life: CMV no deg. [2]: 6.66 h
